Results on 1 substance are retold here after paper PMC7154662, “Structural Insight into IAPP‐Derived Amyloid Inhibitors and Their Mechanism of Action” (Angewandte Chemie (International Ed. in English), 2020).

For the data set, the system named is Aβ40. The experiment in a line: MAS solid-state NMR of ISM-induced Aβ40 aggregates. The data set is classed as biochemical.

For the substance “KKK-ATQRLANFLVH-LLL-NF(N-Me)GA(N-Me)ILS-KKK [K3-L3-K3-GI]”, the “Asp-23/Lys-28 salt bridge in ISM-induced Aβ40 aggregates” value (2D 13C,15N TEDOR) is “a salt bridge is formed”. Also, under “13C chemical shifts, TALOS+”, the “β-sheet core of ISM-induced Aβ40 aggregates” value is “same residues as in an Aβ amyloid fibril are immobilized and involved in the β‐sheet core”.
